In US20210179680A1, “POLYPEPTIDE, DERIVATIVES THEREOF, AND APPLICATION THEREOF IN PREPARATION OF DRUGS HAVING RESISTANCE TO PULMONARY FIBROSIS” (priority 2016, published 2021):
No constants are given. Whether binding was seen depends on the method and setting. In cells and extracts the contact can be indirect. Some entries that bind do so weakly or less than the wild type.

Chains of the proteins cited; added tags and fusions are not shown.
UniProt P23804: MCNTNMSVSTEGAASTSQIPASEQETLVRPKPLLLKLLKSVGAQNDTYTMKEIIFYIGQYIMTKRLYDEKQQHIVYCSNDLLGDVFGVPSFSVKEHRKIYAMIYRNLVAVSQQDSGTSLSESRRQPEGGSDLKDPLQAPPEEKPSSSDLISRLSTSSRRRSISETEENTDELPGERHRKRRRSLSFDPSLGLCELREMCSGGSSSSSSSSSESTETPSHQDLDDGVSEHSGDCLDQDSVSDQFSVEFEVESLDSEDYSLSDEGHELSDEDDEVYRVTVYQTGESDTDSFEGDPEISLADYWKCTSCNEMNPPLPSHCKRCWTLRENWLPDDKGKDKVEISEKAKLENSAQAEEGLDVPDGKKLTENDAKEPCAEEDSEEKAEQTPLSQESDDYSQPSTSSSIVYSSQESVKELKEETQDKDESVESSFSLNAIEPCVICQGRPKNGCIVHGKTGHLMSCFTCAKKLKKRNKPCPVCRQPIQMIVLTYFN

Tests used:
[1] = target: MDM2 protein in lung tissue of mice with pulmonary fibrosis (mouse) (UniProt P23804); assay: co-immunoprecipitation with MDM2 antibody from mouse lung tissue lysate
[2] = target: MDM2 protein in lung tissue of mice with pulmonary fibrosis (mouse) (UniProt P23804); assay: co-immunoprecipitation with MDM2 antibody from mouse lung tissue lysate, Western blot

B1: TRB3 protein in lung tissue of mice with pulmonary fibrosis (protein, mouse, UniProt Q8K4K2 1-354, looked up)
chain: MRATPLAASADVSCRKKPLEFDDNIDAKCPVLKRVRDEPEPGPLPSLLPPSPPPASDLSPAVAPATRLGPYILLEREQGSCSYRALHCPTGTEYTCKVYPASEAQAVLAPYARLPTHQHVARPTEVLLGSRLLYIFFTKTHGDLHSLVRSRRGIPESEAAGLFRQMASAVAHCHKHGLVLRDLKLRRFVFSNCERTKLVLENLEDACVMTGSDDSLWDKHACPAYVGPEILSSRPSYSGKAADVWSLGVALFTMLAGRYPFHDSEPVLLFGKIRRGTFALPEGLSAPARCLIRCLLRKEPSERLVALGILLHPWLREDHGRVSPPQSDRREMDQVVPDGPQLEEAEEGEVGLYG
- binding [1]: binds
- binding [2]: binds
